Assay results as given in PMC9881148.

Biological target: p53WT (Homo sapiens) (UniProt P04637)
Experiment: FCS
Settings: 3 mM DTT, 0.05% Tween20, 1 h room temperature, 10 nM nucleic acid, recombinant protein, protein details: His-tag removed by thrombin, label: Cy5 at 5' end of forward strand

Sequence | binding result (onset of binding ~1 uM, ~100x higher than REp21, 50 mM Tris pH 7.4, 150 mM NaCl) | Kd (50 mM Tris pH 7.4, 150 mM NaCl) [nM]
GTCGCTGACCCGAGACTAGGCGTTCAAATA (double strand) [REp21scr] | binds more weakly | 
CGAGGAACATGTCCCAACATGTTGCTCGAG (double strand) [REp21] |  | 32

For at least one entry, the source does not settle the construct or the ends of the probe. Weaker means in comparison with the reference protein, sequence or condition of that experiment.
